Article PMC12434091, “Real-time monitoring with iTLR4 assay identifies ligand-dependent TLR4-TLR4 conformational dynamics” (Frontiers in Immunology, 2025)
No constants are given. Whether binding was seen depends on the method and setting. In cells and extracts the contact can be indirect. Some binding calls cover weakened binding; strength is not graded here.

Chains of the proteins cited; added tags and fusions are not shown.
UniProt P35372: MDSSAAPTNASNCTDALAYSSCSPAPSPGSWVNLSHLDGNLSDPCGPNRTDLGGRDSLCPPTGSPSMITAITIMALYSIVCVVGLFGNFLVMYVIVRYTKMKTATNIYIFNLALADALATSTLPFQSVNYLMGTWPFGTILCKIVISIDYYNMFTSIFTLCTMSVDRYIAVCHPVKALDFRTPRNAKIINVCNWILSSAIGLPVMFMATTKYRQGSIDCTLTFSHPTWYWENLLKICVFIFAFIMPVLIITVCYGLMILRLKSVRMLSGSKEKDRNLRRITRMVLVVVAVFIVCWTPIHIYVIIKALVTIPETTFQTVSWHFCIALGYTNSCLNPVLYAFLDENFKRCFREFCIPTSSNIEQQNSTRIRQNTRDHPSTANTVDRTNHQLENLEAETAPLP
UniProt P32121: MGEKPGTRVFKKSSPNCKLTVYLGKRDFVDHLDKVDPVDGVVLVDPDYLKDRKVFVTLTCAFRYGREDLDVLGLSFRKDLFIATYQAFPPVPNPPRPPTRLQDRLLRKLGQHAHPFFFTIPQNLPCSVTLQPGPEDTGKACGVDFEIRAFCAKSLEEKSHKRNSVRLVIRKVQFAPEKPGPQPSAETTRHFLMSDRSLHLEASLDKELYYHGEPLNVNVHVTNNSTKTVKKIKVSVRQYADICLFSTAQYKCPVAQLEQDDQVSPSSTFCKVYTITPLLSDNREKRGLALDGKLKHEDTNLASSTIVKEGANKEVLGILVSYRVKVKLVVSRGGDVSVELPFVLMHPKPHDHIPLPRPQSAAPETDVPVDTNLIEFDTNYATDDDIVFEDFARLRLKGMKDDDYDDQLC

Molecular target: FLAG-MOP-Nluc (mu opioid receptor-Nanoluciferase) (UniProt P35372)
Experiment: FRET or BRET; live HEK293 cells co-transfected with Flag-MOPR-Nluc (donor), β-arrestin-2-Venus (acceptor) and GRK2; Nano-Glo substrate, 37°C; DAMGO-induced BRET signal, alone or with 100 µM (+)- or (-)-naloxone

binding: binds
Substance: β-arrestin 2-Venus (from UniProt P32121 1-409)
